From PMC9676655

Sequences of proteins named here, by UniProt entry; tags and fusion partners are left off.
UniProt O70511: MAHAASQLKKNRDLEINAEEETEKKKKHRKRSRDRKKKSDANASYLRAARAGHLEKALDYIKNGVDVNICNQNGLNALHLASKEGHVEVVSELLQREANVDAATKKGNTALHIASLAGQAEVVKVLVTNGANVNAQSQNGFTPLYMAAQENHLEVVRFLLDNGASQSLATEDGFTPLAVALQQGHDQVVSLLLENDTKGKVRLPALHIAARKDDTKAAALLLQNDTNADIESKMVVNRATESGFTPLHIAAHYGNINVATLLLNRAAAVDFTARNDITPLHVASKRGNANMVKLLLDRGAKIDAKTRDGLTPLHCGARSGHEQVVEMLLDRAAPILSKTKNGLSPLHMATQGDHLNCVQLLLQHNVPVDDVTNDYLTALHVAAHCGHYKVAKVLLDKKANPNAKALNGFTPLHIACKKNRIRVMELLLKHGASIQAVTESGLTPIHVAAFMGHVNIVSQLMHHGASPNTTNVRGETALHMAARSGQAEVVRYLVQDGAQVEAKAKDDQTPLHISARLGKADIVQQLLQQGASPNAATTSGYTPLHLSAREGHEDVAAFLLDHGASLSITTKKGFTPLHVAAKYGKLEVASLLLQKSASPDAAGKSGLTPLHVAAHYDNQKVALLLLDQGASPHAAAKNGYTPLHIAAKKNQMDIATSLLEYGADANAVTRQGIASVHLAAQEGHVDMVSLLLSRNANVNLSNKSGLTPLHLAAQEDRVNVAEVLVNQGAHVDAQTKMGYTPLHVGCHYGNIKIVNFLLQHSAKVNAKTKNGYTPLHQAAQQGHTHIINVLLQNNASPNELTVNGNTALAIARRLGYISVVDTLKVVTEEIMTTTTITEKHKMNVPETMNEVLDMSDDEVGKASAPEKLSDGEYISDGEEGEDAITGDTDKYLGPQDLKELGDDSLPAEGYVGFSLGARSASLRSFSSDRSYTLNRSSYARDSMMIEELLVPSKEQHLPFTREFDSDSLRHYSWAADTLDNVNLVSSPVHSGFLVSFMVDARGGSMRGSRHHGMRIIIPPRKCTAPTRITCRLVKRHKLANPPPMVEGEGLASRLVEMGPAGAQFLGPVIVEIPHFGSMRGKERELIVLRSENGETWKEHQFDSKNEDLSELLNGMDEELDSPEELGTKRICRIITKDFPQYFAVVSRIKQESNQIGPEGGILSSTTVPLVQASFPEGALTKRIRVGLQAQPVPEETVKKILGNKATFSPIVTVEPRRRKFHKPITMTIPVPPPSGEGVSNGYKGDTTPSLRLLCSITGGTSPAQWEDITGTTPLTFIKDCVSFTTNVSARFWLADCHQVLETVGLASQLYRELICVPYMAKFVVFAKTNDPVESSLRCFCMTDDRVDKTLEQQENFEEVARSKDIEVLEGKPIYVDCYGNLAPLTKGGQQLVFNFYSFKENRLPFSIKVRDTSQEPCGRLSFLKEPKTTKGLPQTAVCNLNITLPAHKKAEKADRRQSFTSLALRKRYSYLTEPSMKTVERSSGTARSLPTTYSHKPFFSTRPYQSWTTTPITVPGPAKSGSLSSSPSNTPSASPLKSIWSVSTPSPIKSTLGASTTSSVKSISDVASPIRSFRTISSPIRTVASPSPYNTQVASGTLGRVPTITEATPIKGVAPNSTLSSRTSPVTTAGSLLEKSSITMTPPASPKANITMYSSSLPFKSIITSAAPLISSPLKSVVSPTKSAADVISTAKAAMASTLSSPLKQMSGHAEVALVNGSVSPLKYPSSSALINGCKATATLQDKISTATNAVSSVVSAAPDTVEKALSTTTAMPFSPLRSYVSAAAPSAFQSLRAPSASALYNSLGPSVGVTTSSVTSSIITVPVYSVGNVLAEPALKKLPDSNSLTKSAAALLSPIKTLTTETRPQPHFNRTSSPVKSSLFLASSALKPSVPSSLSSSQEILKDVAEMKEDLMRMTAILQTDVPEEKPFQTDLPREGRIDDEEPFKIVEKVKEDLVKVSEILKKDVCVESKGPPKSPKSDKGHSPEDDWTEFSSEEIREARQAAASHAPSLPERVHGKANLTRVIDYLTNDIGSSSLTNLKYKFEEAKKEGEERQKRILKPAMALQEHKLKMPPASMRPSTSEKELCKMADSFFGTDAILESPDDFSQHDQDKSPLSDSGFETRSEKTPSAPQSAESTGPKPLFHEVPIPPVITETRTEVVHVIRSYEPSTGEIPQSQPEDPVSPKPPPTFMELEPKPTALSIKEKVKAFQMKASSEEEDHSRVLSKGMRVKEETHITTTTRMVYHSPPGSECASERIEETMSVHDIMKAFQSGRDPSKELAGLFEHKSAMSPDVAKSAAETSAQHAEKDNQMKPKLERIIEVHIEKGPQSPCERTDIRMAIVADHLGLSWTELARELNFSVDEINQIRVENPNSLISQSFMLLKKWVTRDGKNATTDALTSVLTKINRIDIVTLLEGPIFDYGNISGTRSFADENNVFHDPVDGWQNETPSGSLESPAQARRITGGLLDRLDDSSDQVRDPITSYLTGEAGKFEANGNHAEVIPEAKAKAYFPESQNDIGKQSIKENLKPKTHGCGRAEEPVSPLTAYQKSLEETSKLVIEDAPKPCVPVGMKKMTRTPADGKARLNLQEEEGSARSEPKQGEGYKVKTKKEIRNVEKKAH
UniProt Q6MG49: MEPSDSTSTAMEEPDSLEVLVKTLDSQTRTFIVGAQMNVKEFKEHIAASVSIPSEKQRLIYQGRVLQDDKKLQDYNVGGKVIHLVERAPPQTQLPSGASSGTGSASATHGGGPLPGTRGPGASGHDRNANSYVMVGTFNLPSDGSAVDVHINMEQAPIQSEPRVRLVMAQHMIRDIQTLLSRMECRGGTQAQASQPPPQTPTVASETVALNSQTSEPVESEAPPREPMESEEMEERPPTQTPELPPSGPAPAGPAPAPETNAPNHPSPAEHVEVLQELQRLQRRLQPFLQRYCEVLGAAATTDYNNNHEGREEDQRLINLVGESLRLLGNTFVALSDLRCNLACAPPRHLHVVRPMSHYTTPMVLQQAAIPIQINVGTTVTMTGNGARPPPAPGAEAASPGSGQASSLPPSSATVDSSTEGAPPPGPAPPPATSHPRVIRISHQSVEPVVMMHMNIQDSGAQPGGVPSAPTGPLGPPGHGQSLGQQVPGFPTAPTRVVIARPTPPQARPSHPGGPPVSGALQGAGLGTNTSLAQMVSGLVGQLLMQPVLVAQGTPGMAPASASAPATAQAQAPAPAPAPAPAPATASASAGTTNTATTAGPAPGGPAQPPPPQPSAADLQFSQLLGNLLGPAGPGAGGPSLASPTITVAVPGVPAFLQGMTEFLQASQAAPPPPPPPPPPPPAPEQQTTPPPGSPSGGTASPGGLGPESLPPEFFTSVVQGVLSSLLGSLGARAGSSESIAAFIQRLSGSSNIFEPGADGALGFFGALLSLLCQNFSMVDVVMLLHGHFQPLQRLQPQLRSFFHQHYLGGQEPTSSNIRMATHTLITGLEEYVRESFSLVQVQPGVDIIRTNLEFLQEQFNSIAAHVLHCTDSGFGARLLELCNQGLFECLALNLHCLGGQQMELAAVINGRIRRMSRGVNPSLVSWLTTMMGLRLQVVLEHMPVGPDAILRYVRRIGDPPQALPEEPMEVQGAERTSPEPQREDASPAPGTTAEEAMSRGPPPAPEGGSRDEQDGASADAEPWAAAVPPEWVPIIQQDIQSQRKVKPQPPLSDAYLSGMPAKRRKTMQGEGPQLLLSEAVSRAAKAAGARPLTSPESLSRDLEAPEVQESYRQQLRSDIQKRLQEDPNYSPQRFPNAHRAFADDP
UniProt Q8R560: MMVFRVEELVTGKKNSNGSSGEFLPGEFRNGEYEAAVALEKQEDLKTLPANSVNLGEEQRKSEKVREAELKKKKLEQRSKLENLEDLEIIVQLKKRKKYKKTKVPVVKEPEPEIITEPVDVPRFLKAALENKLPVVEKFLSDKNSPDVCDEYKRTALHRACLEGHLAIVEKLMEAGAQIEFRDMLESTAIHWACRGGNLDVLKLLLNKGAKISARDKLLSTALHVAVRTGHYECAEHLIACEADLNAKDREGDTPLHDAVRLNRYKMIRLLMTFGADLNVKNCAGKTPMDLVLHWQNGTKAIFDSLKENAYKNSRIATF
UniProt O08629: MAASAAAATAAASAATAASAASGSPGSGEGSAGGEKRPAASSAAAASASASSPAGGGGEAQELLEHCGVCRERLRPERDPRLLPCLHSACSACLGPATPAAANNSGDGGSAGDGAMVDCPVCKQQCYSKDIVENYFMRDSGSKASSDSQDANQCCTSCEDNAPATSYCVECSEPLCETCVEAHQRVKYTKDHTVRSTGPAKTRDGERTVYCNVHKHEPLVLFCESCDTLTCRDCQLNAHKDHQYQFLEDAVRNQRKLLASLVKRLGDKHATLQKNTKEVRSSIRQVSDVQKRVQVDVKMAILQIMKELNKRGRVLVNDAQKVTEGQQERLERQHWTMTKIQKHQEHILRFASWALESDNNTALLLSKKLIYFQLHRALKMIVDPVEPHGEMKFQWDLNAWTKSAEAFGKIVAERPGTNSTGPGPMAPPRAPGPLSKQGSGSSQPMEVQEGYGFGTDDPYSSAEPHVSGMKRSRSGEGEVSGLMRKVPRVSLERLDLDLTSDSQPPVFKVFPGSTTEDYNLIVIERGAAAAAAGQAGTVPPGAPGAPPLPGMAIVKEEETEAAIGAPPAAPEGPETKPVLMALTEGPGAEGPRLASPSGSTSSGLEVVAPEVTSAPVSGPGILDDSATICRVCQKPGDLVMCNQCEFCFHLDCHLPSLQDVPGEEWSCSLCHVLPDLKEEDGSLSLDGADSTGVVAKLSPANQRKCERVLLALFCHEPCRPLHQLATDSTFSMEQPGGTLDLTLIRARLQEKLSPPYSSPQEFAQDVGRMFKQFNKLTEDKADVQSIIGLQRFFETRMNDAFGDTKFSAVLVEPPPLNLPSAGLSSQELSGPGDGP

T1: C-terminal Flag tagged PERM1 (PERM1-Flag) (UniProt Q149B8)
T1 sequence: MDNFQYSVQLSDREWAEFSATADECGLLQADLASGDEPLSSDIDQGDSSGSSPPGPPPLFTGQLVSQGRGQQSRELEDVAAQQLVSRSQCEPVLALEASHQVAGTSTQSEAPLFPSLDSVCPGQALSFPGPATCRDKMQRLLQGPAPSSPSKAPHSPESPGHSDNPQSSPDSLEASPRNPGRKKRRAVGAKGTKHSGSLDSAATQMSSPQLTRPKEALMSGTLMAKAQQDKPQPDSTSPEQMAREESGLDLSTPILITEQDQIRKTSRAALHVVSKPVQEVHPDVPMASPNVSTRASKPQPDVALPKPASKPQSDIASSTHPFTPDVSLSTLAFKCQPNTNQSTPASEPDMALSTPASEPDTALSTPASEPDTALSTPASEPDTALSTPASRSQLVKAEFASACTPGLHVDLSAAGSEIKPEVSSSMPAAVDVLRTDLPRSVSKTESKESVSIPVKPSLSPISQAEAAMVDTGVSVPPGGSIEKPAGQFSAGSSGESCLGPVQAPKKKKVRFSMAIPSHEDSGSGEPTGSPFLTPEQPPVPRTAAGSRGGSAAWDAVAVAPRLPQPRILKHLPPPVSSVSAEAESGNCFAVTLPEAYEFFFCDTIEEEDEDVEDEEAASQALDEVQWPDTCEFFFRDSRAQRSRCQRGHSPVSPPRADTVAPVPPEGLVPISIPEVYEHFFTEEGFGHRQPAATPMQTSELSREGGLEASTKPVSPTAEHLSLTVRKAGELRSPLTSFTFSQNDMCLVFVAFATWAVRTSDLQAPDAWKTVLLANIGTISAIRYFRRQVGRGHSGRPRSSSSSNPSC

B1: KANK2 (KN motif and ankyrin repeat domains 2) (protein, UniProt D3ZD05 1-847)
chain: MAQVLHVPAPFPGTPGQASSAAFPNKEPDPPYSVETPYGYRLDLDFLKYVDDIEKGHTLRRVPVQRRPRLGSLPRGPGSWWTSTESLCSDASGDSRHSAYSYCGRGFYPQYGALETRSGTNPRVERTLLDARRRLEDQAAAPSSGGLGSLTPSAAGSTSSLAGVGLLPPTPRSSGLSTPVAPSAGHLAHVREQMAGALRKLRQLEEQVKLIPVLQVKLSVLQEEKRQLTVQLKSQKFLGHPSGTRSRSELCLDLPEAPDDPAVLETRSVGTWVRERDLGIPDGEAALVAKVAVLETQLKKALQELRAAQTQQVDLQPQAWPPPDTQVRVDTVRVVEGPREVEVAASTAAGAPAQRAQSLEPYGAGLKALATSAENTLVFRSHEVVETMCPLPTASTSNMHTAKKISITERNCTGAARMADPPPSPAEPSPSSPYPAAEPENPAPAAQDTTDRELTRPVASQDSQAAEGAGGASLGVQSALKRKEVPADPDVHQRNLQFVGINGGYESSSEDSSTAENSEHESTENEAPEPPVRVLSTAEGPQLRPLGPAVGKTSQDERQLSQESQRVPEAKVAPGPDPEEEIRMDLSPDLISACLALEKYLENPNALTERELKVAYTTVLQEWLRLACRSDAHPELVRRHLVTFRAMSARLLDYVVNIADSNGNTALHYSVSHANFPVVRQLLDSGVCQVDKLNRAGYSPIMLTALATLKTQDDIDTILQLFRLGNVNAKASQAGQTALMLAVSHGRVDVVKALLACEVDVNMQDEDGSTALMCACEHGHKEITGLLLAVPSCDISLTDRDGSTALMVALDAGQSEIASMLYSRMNIKCSFAPMSDYESPASSSAEE
B2: SAMM50 (protein, UniProt Q6AXV4 1-469)
chain: MGTVHARSLEPLPSSGTDFGALGEEAEFVEVEPEAKQEILENKDVVVQHVHFDGLERTKDDIIICEIGEVFKAKNLIEVMRRSHEAREKLLRLGIFRQVDVLIDTCHGEDALPNGLDVTFEVTELRRLTGSYNTMVGNNEGSMVLGLKLPNLLGRAEKVTFQFSYGTKETSYGLSFFKPQPGNFEKNFSVNLYKVTGQFPWSSLRETDRGVSAEYSFPLCKTSHTVKWEGVWRELGCLARTASFAVRKESGHSLKSSLSHAMVIDSRNSSILPRRGALLKVNQELAGYTGGDVSFIKEDFELQLNKPLVLDSVFSTSLWGGMLVPIGDKLSSIADRFYLGGPTSVRGFSMHSIGPQSEGDYLGGEAYWAGGLHLYTPLPFRPGQGGFGELFRTHFFLNAGNLCNLNYGEGPRAHIRKLAECIRWSYGAGIVLRLGNIARLELNYCIPMGVQRGDRICDGVQFGAGIRFL

The molecules below were run against T1, C-terminal Flag tagged PERM1 (PERM1-Flag) (assay: affinity purification with mass spectrometry; Perm1-Flag expressed in primary cultured cardiomyocytes by adenovirus vector; whole lysate immunoprecipitated with anti-Flag antibody; SDS-PAGE, LC-MS/MS).

Row | binding | Molecule
1 | binds | ANKYRIN2
2 | binds | ANKYRIN3 (from UniProt O70511 1-2622)
3 | binds | BLC2-associated anthanogene-6 (BAG6) (from UniProt Q6MG49 1-1146)
4 | binds | ankyrin repeat domain 1 (ANKRD1) (from UniProt Q8R560 1-319)
5 | binds | transcriptional intermediary factor 1β (TIF1β) (from UniProt O08629 1-835)

Target: T1, C-terminal Flag tagged PERM1 (PERM1-Flag)
Experiment: as above
Remark: another data set of the same source

Row | binding | Molecule
6 | binds | B1
7 | binds | B2

These are yes or no findings as the source states them, for the method shown. In cells and extracts the contact can be indirect. These calls come from enrichment with a bait or labelling near it, and not all partners need be listed. Where a sequence is shown, tags or fusion partners need not be part of it.
